PubChem BioAssay AID602196 | INSERM – 2012
In all, the deposit lists about 23,000 reagents; below is a part drawn at random. Of all reagents, 455 (2%) are marked active. 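Active includes both protection and sensitisation; some change values fall well beyond the stated -50 to +50 range.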 Further read-outs or replicates are left out here. Not given: the amount of reagent.

- Assay: 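Genes whose knock-down alters cisplatin killing of lung cancer cells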
- System: human A549 lung cancer cells
- Knock-down reagent: siRNA pair against human genes
- Duration: 48 h transfection before cisplatin; time from cisplatin to read-out not stated
- Treatment: cisplatin at a dose killing half of control-siRNA cells; exact dose and duration not given
- Measurement: 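Shift in cisplatin death relative to control siRNA, from -50 (all cells die) to +50 (no cells die); siRNAs harmful on their own scored 0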
- Reading the numbers: two-siRNA summed score (-2 to +2): higher = both siRNAs protect from cisplatin killing; -2 means both sensitise
- Active means: 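Each siRNA scores 0 if harmful alone by LDH or WST-1, otherwise +1 if it reduces and -1 if it increases cisplatin killing; a gene is active when both siRNAs agree (sum +2 or -2)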
- Calls: active = both siRNAs shift cisplatin killing the same way; inactive = no consistent shift, or siRNA harmful alone

KRTAP5-2 | two-siRNA summed score (-2 to +2) = 0; outcome = inactive
PRSS58 | two-siRNA summed score (-2 to +2) = 1; outcome = inactive
FTH1P16 | two-siRNA summed score (-2 to +2) = 0; outcome = inactive
C10orf71 | two-siRNA summed score (-2 to +2) = 0; outcome = inactive
KRT2 | two-siRNA summed score (-2 to +2) = 0; outcome = inactive
LOC400701 | two-siRNA summed score (-2 to +2) = 0; outcome = inactive
OR2J3 | two-siRNA summed score (-2 to +2) = 1; outcome = inactive
LOC441000 | two-siRNA summed score (-2 to +2) = 0; outcome = inactive
LRRTM3 | two-siRNA summed score (-2 to +2) = 0; outcome = inactive
TMEM191A | two-siRNA summed score (-2 to +2) = 0; outcome = inactive
SOCS1 | two-siRNA summed score (-2 to +2) = 0; outcome = inactive
PABIR1 | two-siRNA summed score (-2 to +2) = 0; outcome = inactive
KDM8 | two-siRNA summed score (-2 to +2) = 1; outcome = inactive
LOC388965 | two-siRNA summed score (-2 to +2) = 0; outcome = inactive
LOC440537 | two-siRNA summed score (-2 to +2) = 0; outcome = inactive
IQCM | two-siRNA summed score (-2 to +2) = 0; outcome = inactive
ZNFX1 | two-siRNA summed score (-2 to +2) = 0; outcome = inactive
WAS | two-siRNA summed score (-2 to +2) = 0; outcome = inactive
DEFB121 | two-siRNA summed score (-2 to +2) = 1; outcome = inactive
CYP2A7 | two-siRNA summed score (-2 to +2) = 0; outcome = inactive
FLJ21159 | two-siRNA summed score (-2 to +2) = 0; outcome = inactive
